Source: PMC4622077
Results are given in words; binding and its absence hold for the method and conditions named. Some results given as binding are weak or reduced against the parent protein; the word gives no strength.

Sequences of proteins named here, by UniProt entry; tags and fusion partners are left off.
UniProt P24385: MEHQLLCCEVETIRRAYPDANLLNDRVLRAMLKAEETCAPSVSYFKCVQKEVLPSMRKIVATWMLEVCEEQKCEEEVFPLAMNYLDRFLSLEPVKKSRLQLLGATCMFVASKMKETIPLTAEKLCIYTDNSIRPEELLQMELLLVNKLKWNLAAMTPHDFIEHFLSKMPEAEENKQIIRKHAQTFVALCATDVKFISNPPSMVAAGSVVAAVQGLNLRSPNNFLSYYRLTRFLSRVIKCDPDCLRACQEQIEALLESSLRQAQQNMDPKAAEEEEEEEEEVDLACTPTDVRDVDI

Target: T1, Cyclin-Dependent Kinase 4 (UniProt P30285)
T1 sequence: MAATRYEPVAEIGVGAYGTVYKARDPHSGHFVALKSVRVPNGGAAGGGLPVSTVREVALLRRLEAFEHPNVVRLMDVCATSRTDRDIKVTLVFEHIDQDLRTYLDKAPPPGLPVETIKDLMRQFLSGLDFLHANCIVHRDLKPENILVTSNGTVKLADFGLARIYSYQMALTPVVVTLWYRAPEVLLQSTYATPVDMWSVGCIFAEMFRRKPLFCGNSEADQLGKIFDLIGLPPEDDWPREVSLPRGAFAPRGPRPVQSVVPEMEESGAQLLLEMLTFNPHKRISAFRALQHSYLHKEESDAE
Test: AlphaScreen or HTRF; classical HTRF between tagged CycD1 and tagged CDK4, read with donor and acceptor antibodies; lysates in HTRF lysis buffer (Tris 10 mM, EDTA 1 mM, 0.05% NP-40), 384-well plate

binding: binds
Substance: Tagged Cyclin D1 protein (from UniProt P24385 1-295)
